# Primary screen of a compound library

From ChEMBL document CHEMBL3988442, “University of Dundee, Small-Polar-MMV Screening Library” (2021).

T. brucei: 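Whole-parasite assay of Trypanosoma brucei over 72 hours; the read-out is not stated. Tested at 30 µM. Direction is inferred from retests: higher values go with stronger inhibition. Values scatter widely below zero; nearly all retest evidence comes from the higher of the two concentrations used. About 64,000 compounds were tested under these conditions; 1.5% (about 940) showed 50% or more at least once.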
Toxoplasma: 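Assay of Toxoplasma gondii numbers, read through their beta-galactosidase reporter with a colour substrate. Tested at 10 µM. The record gives no direction; the compounds picked for IC50 retests had high values, so higher reads as fewer parasites. Size under these conditions: about 67,000 compounds, about 260 of them at 50% or above in at least one test.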

Results are given as percent effect.
The record does not define 0% and 100%; most values in the screen are far below 50% and negative numbers occur (in some assays of this library far below -100).
Compounds were drawn at random from those tested, without regard to their results.

CC(CNCc1ccc(Cl)cc1)Oc1ccccn1.Cl (stereo not shown) read T. brucei: -4.288%; Toxoplasma: -1.232%. CO[C@H]1COC[C@@H]1NC(=O)C1(Oc2ccc(Cl)cc2)CCNCC1 read T. brucei: -8.639%; Toxoplasma: 21.6%. For CNCC(=O)N1CCCC1c1n[nH]cc1-c1ccccc1F.Cl (stereo not shown) the result was Toxoplasma: 14.08%. Result for CCSc1ncc(CN2CCN(c3nc(C)ncc3C)CC2)cn1 was T. brucei: -11.09%; Toxoplasma: -2.276%.

For Cc1cc(NC2CCN(CC3CCCO3)CC2)n2nc(C)c(C)c2n1 (stereo not shown) the result was T. brucei: -51.5%; Toxoplasma: -26.22%. O=C1CC2(CCN(Cc3ccc(-c4ccccc4)s3)C2)C(=O)N1 (stereo not shown) gave T. brucei: -50.63%; Toxoplasma: 10.47%. For O=C(C1CCOC1)N1CCN(CCn2cccn2)c2ncccc2C1.O=C(O)C(F)(F)F (stereo not shown) the result was T. brucei: -86.89%; Toxoplasma: -35.95%. Result for O=C(NCC1(O)CCSCC1)c1ccoc1 was T. brucei: -17.87%; Toxoplasma: -0.6569%.

CN(C)c1ccc(CNC(=O)NCCc2cccs2)cn1 read T. brucei: 17.8%; Toxoplasma: 0.9263%. N#Cc1ccc(OCCN2CCn3c(nnc3C3CC3)C2)cc1 gave T. brucei: -3.449%; Toxoplasma: -3.055%. Result for O=C(O)C(F)(F)F.O=S(=O)(c1cccs1)N1CC[C@H](O)[C@@H]1Cc1ccncc1 was Toxoplasma: -1.022%. For CCS(=O)(=O)NC1CCc2c(ccc(=O)n2CC2CC2)C1 (stereo not shown) the result was T. brucei: -29.62%; Toxoplasma: 3.339%.

With Cc1ocnc1CNC(=O)Nc1ccc(N2CCOC(C)C2)cc1 (stereo not shown) the screen gave T. brucei: -20.02%; Toxoplasma: -11.41%. With CC(OCC(F)(F)F)C(=O)N1CCCCC1 (stereo not shown) the screen gave T. brucei: -29.9%; Toxoplasma: -6.24%. With OC1(Cn2ccc3ncccc32)CCN(Cc2cccs2)CC1 the screen gave T. brucei: 9.016%; Toxoplasma: -14.3%. Result for O=C(O)c1cc(S(=O)(=O)N2CCOc3ccccc32)ccc1F was T. brucei: -29.13%; Toxoplasma: -2.481%.

Result for O=C1N(CC2CC2)C(c2cncs2)NC12CCCC2 (stereo not shown) was Toxoplasma: 6.215%. For Cc1ccsc1C(=O)Nc1cnn(CC(=O)NC2CCCC2)c1 the result was T. brucei: -37.5%; Toxoplasma: 10.33%. CC(C)Nc1nc(O)cc(C2CC(=O)N(Cc3ccccc3)C2)n1 (stereo not shown) read T. brucei: 11.39%; Toxoplasma: -2.588%. COc1ccc(CCN2CCCC(CN(C)Cc3ccc(C)o3)C2)cc1 (stereo not shown) gave T. brucei: 29.5%; Toxoplasma: -0.1595%.

Result for Cc1cc(F)ccc1C(=O)N1CCN(C)C2(CCC(=O)N(C)CC2)C1 (stereo not shown) was T. brucei: -1.827%; Toxoplasma: -5.829%. CC(=O)N1C[C@@H](F)[C@@H](OCc2nc3ccccc3o2)C1 read T. brucei: -4.002%; Toxoplasma: -3.069%. Cc1nccn1CCCn1cncc1-c1ccc2c(c1)CCCN2C.Cl gave T. brucei: -4.365%; Toxoplasma: -10.19%. With CN(Cc1cccc(CCN)c1)Cc1cccc2ncccc12 the screen gave T. brucei: 6.356%; Toxoplasma: -5.615%.

For COc1ccccc1N1CCN(C(=O)CCn2ccc(C)n2)CC1(C)C the result was T. brucei: 4.792%; Toxoplasma: -10.07%.

Some entries from above, unchanged:

{"compound": "CN(C)c1ccc(CNC(=O)NCCc2cccs2)cn1", "T. brucei": 17.8, "Toxoplasma": 0.9263}
{"compound": "Cc1ccsc1C(=O)Nc1cnn(CC(=O)NC2CCCC2)c1", "T. brucei": -37.5, "Toxoplasma": 10.33}
{"compound": "CC(C)Nc1nc(O)cc(C2CC(=O)N(Cc3ccccc3)C2)n1", "stereo": "stereo not shown", "T. brucei": 11.39, "Toxoplasma": -2.588}